Drawing on PubChem BioAssay AID493014 (National Center for Advancing Translational Sciences (NCATS), 2011), this text covers AC50 for 61 compounds.

This experiment can be described thus: qHTS Assay to Find Inhibitors of Chronic Active B-Cell Receptor Signaling. As to conditions: ABC-DLBCL IkBa-CBG/CBR reporter, luminescence ratio (green luciferase fused to IkBa over red control in TMD8 lymphoma cells), 4 h. The procedure, abridged: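 TMD8 ABC-DLBCL cells carrying doxycycline-inducible green luciferase fused to IkappaBalpha plus unfused red luciferase were exposed to compounds (up to 46 uM) for 4 hrs at 37C. Activity came from the overlap-corrected green/red luminescence ratio.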
In general terms: Quantitative high-throughput screening tests each substance at several concentrations.

[1] abbreviates: measured here: CBR red luminescence, cell number.
[2] abbreviates: measured here: IkBa-CBG green luminescence.

This is one part of the list. These are further read-outs of the screen, such as a control signal, another cell line or another target. No call is given for them. The list favours compounds with an active or inconclusive main result. Potencies come from curve fits of mixed quality, noted in brackets.

The term AC50 denotes the midpoint of the concentration-response curve, whichever way the signal moves. Regarding `O=C(NCC1CCCO1)C(=O)c1c[nH]c2ccccc12` (stereo unspecified), the AC50 under setting [1] was 2.51 µM [falling, full curve].

For the compound `CC1(C)Cc2cccc(OCC(=O)Nc3cccnc3Cl)c2O1`, under setting [1], the half-maximal activity concentration (AC50) was 32.6 µM [rising, single point].

In the case of `CCC(=O)N1CCc2cc(S(=O)(=O)CCC(=O)NCc3cccs3)ccc21`, the half-maximal activity concentration (AC50) under setting [1] was 2.51 µM [falling, partial curve, poor fit].

In the case of `CCC(C)[C@H]1CNCCN1CCc1cc(C(F)(F)F)cc(C(F)(F)F)c1` (stereo partly specified), the half-maximal activity concentration (AC50) under setting [1] is 16.4 µM [falling, partial curve].

In the case of `C=CCNc1nc(S(=O)Cc2ccc(C)cc2)nc2c1CCCC2` (stereo unspecified), the concentration at half-maximal activity (AC50) under setting [1] is 35.5 µM [falling, single point].

`CCOc1cc(-c2noc(CCCC(N)=O)n2)cc(Br)c1OC`: the AC50 under setting [1] is 7.08 µM [falling, partial curve].

On to `COc1ccc(N2C(S)=C(C#N)C(=O)NC2c2ccco2)cc1` (stereo unspecified), for which the AC50 is 4.61 µM [rising, partial curve] under setting [1] and 23.1 µM [falling, single point] under setting [2].

Consider `CC(C(=O)N1CCc2ccccc21)N(C)CC(=O)Nc1ccccc1Cl` (stereo unspecified), for which the concentration at half-maximal activity (AC50) under setting [1] is 3.66 µM [rising, full curve, poor fit].

For the compound `CCOC(=O)NNc1ccc2nonc2c1[N+](=O)[O-]`, the AC50 was 35.5 µM [falling, single point] under setting [1] and 15.8 µM [rising, partial curve, poor fit] under setting [2].

As for `CN(CC(=O)Nc1ccccc1Cl)C(=O)COC(=O)Cc1ccc(F)cc1`, the concentration at half-maximal activity (AC50) under setting [1] is 5.62 µM [rising, single point].

On to `Cc1[nH]c2ccccc2c1/C=N/Nc1cccc(C(=O)O)c1`, for which, under setting [1], the AC50 is 0.447 µM [falling, full curve, poor fit].

Consider `O=C1CCc2nc3ccccc3c(=O)n2N1`, for which the half-maximal activity concentration (AC50) under setting [1] is 29.1 µM [falling, single point].

With `O=C(NCC1CCCN1S(=O)(=O)c1cccs1)C(=O)Nc1ccc(F)cc1F` (stereo unspecified), the concentration at half-maximal activity (AC50) under setting [1] was 6.51 µM [falling, full curve, poor fit].

Turning to `CCSc1nc2sc3c(c2c(=O)[nH]1)CCCC3`, the AC50 under setting [1] was 4.11 µM [rising, full curve, poor fit].

As to `COC(=O)/C(=C\Nc1cccc(Cl)c1C)c1ncc(C(F)(F)F)cc1Cl`, the half-maximal activity concentration (AC50) under setting [1] was 0.82 µM [falling, single point].

Regarding `CCn1c(SCC(=O)Nc2cccc(NC(=O)c3cccs3)c2)nnc1-c1ccncc1`, the AC50 under setting [1] is 20 µM [falling, partial curve, poor fit].

In the case of `COC(=O)c1cc(NC(=O)c2ccc([N+](=O)[O-])cc2)c(=O)oc1C`, the half-maximal activity concentration (AC50) under setting [1] is 20 µM [rising, single point].

For `O=C(NCCCN1CCC(Cc2ccccc2)CC1)C1CCN(S(=O)(=O)N2CCC3(CC2)OCCO3)CC1`, the AC50 under setting [1] is 1 µM [falling, partial curve, poor fit].

Regarding `Oc1c(Br)cccc1/C=N/Nc1c(F)c(F)c(F)c(F)c1F`, the AC50 under setting [1] was 2.06 µM [rising, full curve].

`CCc1cc(=O)oc2cc(OCc3ccc(C(=O)O)o3)ccc12`: the AC50 under setting [1] is 3.98 µM [falling, partial curve, poor fit].

Consider `O=C(NCc1csc(-c2cccs2)n1)C1CCCCC1`, for which the half-maximal activity concentration (AC50) under setting [1] was 35.5 µM [falling, single point].

For `c1ccc(CN2CCN(c3nc4ccccc4c4ccccc34)CC2)cc1`, the AC50 under setting [1] was 20.6 µM [rising, partial curve].

On to `CCCNc1c(NC(=O)c2cccs2)c(=O)oc2ccccc12`, for which, under setting [1], the AC50 was 35.5 µM [falling, partial curve, poor fit].

Turning to `Cc1ccccc1-n1c(SCC(=O)N2CCN(c3ccccc3)CC2)nnc1-c1ccncc1`, the AC50 under setting [1] was 31.6 µM [rising, partial curve, poor fit].

Regarding `COc1cc(/C=C(/Sc2nnc(-c3ccc(F)cc3)o2)C(=O)O)ccc1OC(F)F`, the AC50 under setting [1] was 17.8 µM [falling, single point].

Turning to `CCOc1ccc(OCCC(=O)N(CC)CC(=O)Nc2c(F)cccc2F)cc1`, the AC50 under setting [1] is 18.4 µM [rising, single point] and the AC50 under setting [2] is 18.4 µM [falling, single point].

As to `Fc1cccc(F)c1/C=N/Nc1ccccn1`, under setting [1], the AC50 is 22.4 µM [falling, single point].

Take `CN(C)c1ccc(CN2CCC(C(N)=O)CC2)cc1`: under setting [1], the half-maximal activity concentration (AC50) is 0.794 µM [rising, full curve, poor fit].

Turning to `Nn1c(COc2ccccc2)nnc1SCc1cc(=O)[nH]c2ccccc12`, under setting [1], the AC50 was 2.91 µM [rising, single point].

For `COCC(C)NCc1cccc(C)c1` (stereo unspecified), the half-maximal activity concentration (AC50) under setting [1] is 3.55 µM [rising, full curve, poor fit].

For the compound `CCOC(=O)C1CCN(Cc2nc3ccccc3c(=O)n2-c2ccc(F)cc2)CC1`, under setting [1], the AC50 is 29.1 µM [falling, single point].

In the case of `COCCN=c1scc(-c2ccc3c(c2)NC(=O)CO3)n1/N=C(\C)c1ccc(O)cc1`, the AC50 under setting [1] is 11.2 µM [falling, single point].

On to `N#Cc1c(NC(=O)Cn2cnc3ccccc3c2=O)oc(-c2ccccc2)c1-c1ccccc1`, for which, under setting [1], the half-maximal activity concentration (AC50) is 6.51 µM [falling, single point].

In the case of `O=C(Nc1ccc(N2CCN(C(=O)c3ccco3)CC2)c(Cl)c1)c1cc2ccccc2o1`, the AC50 under setting [1] is 35.5 µM [falling, single point].

On to `COc1cc(/C=C(\C#N)c2nc3ccccc3c(=O)[nH]2)cc(OC)c1OC`, for which the concentration at half-maximal activity (AC50) under setting [1] is 17.8 µM [falling, single point].

Take `Cc1c(C(=O)N2CC3(CC(c4cccc(NC(=O)CC(c5ccccc5)c5ccccc5)c4)=NO3)C[C@@H]2C(N)=O)cc([N+](=O)[O-])cc1[N+](=O)[O-]` (stereo partly specified): the concentration at half-maximal activity (AC50) under setting [1] is 0.631 µM [falling, partial curve, poor fit].

Consider `Cc1ccc(C(C)C)c(OCCCN2C(=O)NC(C)(C)C2=O)c1`, for which the AC50 under setting [1] is 6.51 µM [rising, single point].

In the case of `CNC(=O)c1cccnc1Nc1cccc(C(F)(F)F)c1`, the concentration at half-maximal activity (AC50) under setting [1] is 1.16 µM [rising, full curve].

As to `COc1ccc(-c2[nH]c(-c3cc(OC)c4c(c3)OCO4)nc2-c2ccccc2)cc1`, the half-maximal activity concentration (AC50) under setting [1] is 0.651 µM [falling, full curve, poor fit].

Turning to `Clc1ccc(-c2c[n+](Cc3cccc(Cl)c3)c3n2CCC3)cc1`, the AC50 under setting [1] was 16.4 µM [falling, partial curve, poor fit].

For the compound `COc1cccc(/C=C/C(=O)Nc2ccc(C(=O)Nc3cccc(S(N)(=O)=O)c3)cc2)c1OC`, the AC50 under setting [1] is 0.794 µM [falling, full curve, poor fit].

Turning to `CCC(=O)Nc1nc2nc(-c3ccccc3)cc(=O)n2[nH]1`, the half-maximal activity concentration (AC50) under setting [1] was 22.4 µM [falling, single point].

Turning to `Cc1c(C(=O)NCC2COc3ccccc3O2)oc2ccc(S(=O)(=O)N3CC(C)CC(C)C3)cc12` (stereo unspecified), the concentration at half-maximal activity (AC50) under setting [1] was 9.2 µM [rising, partial curve, poor fit].

As for `O=C(N/N=C/c1cccc(O)c1)N/N=C/c1cccc(O)c1`, the concentration at half-maximal activity (AC50) under setting [1] was 11.2 µM [falling, partial curve, poor fit].

On to `O=C(COC(=O)c1ccc(S(=O)(=O)NCc2ccco2)cc1)NC1CCCCC1`, for which, under setting [1], the concentration at half-maximal activity (AC50) is 16.4 µM [rising, partial curve, poor fit].

Take `Oc1ccc(Nc2ccnc3cc(Cl)ccc23)cc1`: the half-maximal activity concentration (AC50) under setting [1] is 35.5 µM [falling, single point].

Regarding `O=C(CSc1ccccc1)N1CCN(c2ccccn2)CC1`, the concentration at half-maximal activity (AC50) under setting [1] was 12.6 µM [falling, single point].

With `O=C(N/N=C/c1cc2c(cc1Br)OCO2)c1cc2ccccc2o1`, the concentration at half-maximal activity (AC50) under setting [1] was 0.631 µM [rising, full curve].

Turning to `CCC(=O)Nc1nonc1-c1nc2ccccc2n1Cc1cccc2ccccc12`, the AC50 was 4.11 µM [rising, full curve] under setting [1] and 4.11 µM [falling, full curve] under setting [2].

In the case of `CN(Cc1ccccc1)C(=O)CN1C(=O)COc2ccc(S(=O)(=O)N3CCCC3)cc21`, the half-maximal activity concentration (AC50) under setting [1] is 25.1 µM [falling, single point].

With `COc1cc2ccccc2cc1C(=O)NC(=S)Nc1cccc(C(=O)O)c1`, the AC50 under setting [1] is 12.6 µM [falling, single point].

In the case of `O=C(Nc1ccnc(=O)[nH]1)c1sc2ccccc2c1Cl`, the AC50 under setting [1] was 3.55 µM [rising, single point].

Turning to `O=c1cc(CCl)[nH]c2nc3ccccc3n12`, under setting [1], the AC50 was 14.1 µM [falling, partial curve].

`CC(=O)[C@H]1CC[C@H]2[C@@H]3C[C@H](C)C4=CC(=O)CC[C@]4(C)[C@H]3[C@@H](O)C[C@]12C`: the half-maximal activity concentration (AC50) reads like this: under setting [1], 20.6 µM [rising, partial curve, poor fit]; under setting [2], 5.17 µM [falling, full curve].

On to `CCN(C(=O)COC(=O)c1cc(-c2ccc3cc(OC)ccc3c2)nc2ccccc12)C1CCS(=O)(=O)C1` (stereo unspecified), for which the concentration at half-maximal activity (AC50) under setting [1] is 0.651 µM [falling, full curve, poor fit].

As for `Cc1cccc(N(Cc2ccccc2)C(=O)c2cc(S(=O)(=O)N3CCOCC3)ccc2Cl)c1`, the half-maximal activity concentration (AC50) under setting [1] is 20.6 µM [falling, single point].

Take `O=C1c2cccnc2C(Nc2ccc(Br)cc2)N1Cc1cccs1` (stereo unspecified): the AC50 under setting [1] was 3.16 µM [rising, partial curve].

On to `COC(=O)c1sccc1NC(=O)Nc1ccc(F)cc1`, for which, under setting [1], the AC50 is 11.2 µM [falling, partial curve, poor fit].

For `CC(C)OCCCN1CN(S(=O)(=O)c2cccc(Cl)c2)c2nc3ccccc3nc21`, the concentration at half-maximal activity (AC50) under setting [1] is 35.5 µM [falling, single point].

As for `COc1cc(NC2CCCCC2O)c2nc(-c3ccc(Cl)cc3)ccc2c1` (stereo unspecified), under setting [1], the AC50 is 8.91 µM [rising, partial curve, poor fit].

In the case of `Cc1ccc(C(=O)NCc2ccc3c(c2)OCO3)c(C)c1`, under setting [1], the AC50 was 15.8 µM [rising, partial curve, poor fit].
